Reference: paper PMC9966875
No constants are given. Whether binding was seen depends on the method and setting. In cells and extracts the contact can be indirect. A yes stands for co-enrichment or nearness to the bait. Other partners may have been found. For some assays here: A no says only that the protein was not detected with the bait.

Chains of the proteins cited; added tags and fusions are not shown.
UniProt P52926: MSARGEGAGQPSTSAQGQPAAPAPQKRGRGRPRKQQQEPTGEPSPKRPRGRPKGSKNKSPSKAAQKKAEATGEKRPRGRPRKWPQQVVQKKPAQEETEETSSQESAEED
UniProt Q14980: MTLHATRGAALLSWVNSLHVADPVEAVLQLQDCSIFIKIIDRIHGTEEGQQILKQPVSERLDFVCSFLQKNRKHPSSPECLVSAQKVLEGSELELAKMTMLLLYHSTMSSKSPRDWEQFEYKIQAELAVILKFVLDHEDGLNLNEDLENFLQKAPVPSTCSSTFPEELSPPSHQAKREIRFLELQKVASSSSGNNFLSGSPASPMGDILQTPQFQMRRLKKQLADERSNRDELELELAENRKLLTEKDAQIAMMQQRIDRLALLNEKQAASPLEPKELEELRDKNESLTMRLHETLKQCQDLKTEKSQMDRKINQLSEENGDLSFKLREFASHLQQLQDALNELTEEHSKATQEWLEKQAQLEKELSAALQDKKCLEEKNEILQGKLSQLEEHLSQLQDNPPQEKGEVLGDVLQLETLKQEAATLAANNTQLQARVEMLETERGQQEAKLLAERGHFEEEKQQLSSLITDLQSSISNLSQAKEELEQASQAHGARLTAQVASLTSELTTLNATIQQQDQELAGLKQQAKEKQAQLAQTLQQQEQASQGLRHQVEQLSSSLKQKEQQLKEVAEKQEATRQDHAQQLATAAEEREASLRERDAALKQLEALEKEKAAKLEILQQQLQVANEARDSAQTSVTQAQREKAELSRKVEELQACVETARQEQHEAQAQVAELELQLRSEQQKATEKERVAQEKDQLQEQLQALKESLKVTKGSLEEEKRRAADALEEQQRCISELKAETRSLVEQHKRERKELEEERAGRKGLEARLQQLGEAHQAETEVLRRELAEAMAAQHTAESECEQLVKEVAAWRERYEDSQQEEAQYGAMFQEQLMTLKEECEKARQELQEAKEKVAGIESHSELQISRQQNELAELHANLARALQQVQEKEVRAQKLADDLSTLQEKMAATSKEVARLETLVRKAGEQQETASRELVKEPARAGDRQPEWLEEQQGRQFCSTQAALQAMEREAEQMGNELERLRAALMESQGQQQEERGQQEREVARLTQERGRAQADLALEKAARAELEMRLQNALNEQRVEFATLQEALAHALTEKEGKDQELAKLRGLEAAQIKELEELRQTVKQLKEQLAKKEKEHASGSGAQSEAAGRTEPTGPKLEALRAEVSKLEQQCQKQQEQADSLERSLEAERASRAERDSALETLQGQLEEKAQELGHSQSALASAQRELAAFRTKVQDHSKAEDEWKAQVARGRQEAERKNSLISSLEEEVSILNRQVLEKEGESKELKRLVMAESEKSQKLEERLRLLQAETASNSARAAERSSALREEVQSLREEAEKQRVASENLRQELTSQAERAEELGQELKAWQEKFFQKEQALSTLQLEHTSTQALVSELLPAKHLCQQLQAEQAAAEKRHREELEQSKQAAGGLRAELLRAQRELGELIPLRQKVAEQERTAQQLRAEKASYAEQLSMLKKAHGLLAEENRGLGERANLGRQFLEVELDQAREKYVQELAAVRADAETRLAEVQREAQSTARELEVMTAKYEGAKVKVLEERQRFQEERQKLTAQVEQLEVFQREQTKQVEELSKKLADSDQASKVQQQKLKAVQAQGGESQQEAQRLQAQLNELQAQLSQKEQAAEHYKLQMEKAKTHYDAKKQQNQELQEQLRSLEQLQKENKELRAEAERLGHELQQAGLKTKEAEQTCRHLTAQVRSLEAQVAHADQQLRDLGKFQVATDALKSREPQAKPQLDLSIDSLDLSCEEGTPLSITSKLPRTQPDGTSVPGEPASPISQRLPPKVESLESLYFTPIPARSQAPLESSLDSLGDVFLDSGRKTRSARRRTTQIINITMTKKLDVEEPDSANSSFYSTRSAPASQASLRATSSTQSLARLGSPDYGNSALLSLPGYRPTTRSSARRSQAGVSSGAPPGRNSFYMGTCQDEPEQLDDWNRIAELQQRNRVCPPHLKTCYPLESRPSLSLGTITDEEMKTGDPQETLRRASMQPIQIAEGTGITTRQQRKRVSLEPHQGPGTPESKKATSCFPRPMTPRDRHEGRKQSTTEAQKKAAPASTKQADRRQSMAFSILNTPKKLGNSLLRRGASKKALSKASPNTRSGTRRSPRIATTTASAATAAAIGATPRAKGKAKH

What was measured:
[1] = biological target: HMGA2-Flag-BioID2 (UniProt P52926); test: proximity labelling; BioID2: HEK293 stably expressing HMGA2-Flag-BioID2, SILAC, 50 uM biotin for 18 h; high-salt RIPA lysis, capture on streptavidin-agarose, LC-MS/MS; two experiments, controls BirA* and parental cells (experiment 1), BioID2 alone (experiment 2)
[2] = biological target: HMGA2-Flag-BioID2 (UniProt P52926); test: proximity labelling; BioID/Western blot: HEK293 HMGA2-BioID2 against BioID2 alone, excess biotin for 18 h; biotinylated proteins captured on streptavidin-agarose and detected with specific antibodies
[3] = biological target: HMGA2-V5-miniTurbo (UniProt P52926); test: proximity labelling; miniTurbo: HEK293 stably expressing HMGA2-V5-miniTurbo, SILAC, 1 hr labeling time with biotin; streptavidin capture, LC-MS/MS; control miniTurbo alone

TP53 (from UniProt P04637 1-393)
binding [1]: no binding | binding [2]: no binding

nuclear mitotic apparatus protein, NUMA (from UniProt Q14980 1-2115)
binding [3]: binds | binding [1]: binds | binding [2]: binds

B1: ILKAP (protein, UniProt Q9H0C8 1-392)
chain: MDLFGDLPEPERSPRPAAGKEAQKGPLLFDDLPPASSTDSGSGGPLLFDDLPPASSGDSGSLATSISQMVKTEGKGAKRKTSEEEKNGSEELVEKKVCKASSVIFGLKGYVAERKGEREEMQDAHVILNDITEECRPPSSLITRVSYFAVFDGHGGIRASKFAAQNLHQNLIRKFPKGDVISVEKTVKRCLLDTFKHTDEEFLKQASSQKPAWKDGSTATCVLAVDNILYIANLGDSRAILCRYNEESQKHAALSLSKEHNPTQYEERMRIQKAGGNVRDGRVLGVLEVSRSIGDGQYKRCGVTSVPDIRRCQLTPNDRFILLACDGLFKVFTPEEAVNFILSCLEDEKIQTREGKSAADARYEAACNRLANKAVQRGSADNVTVMVVRIGH
binding [3]: binds | binding [1]: binds

B2: POGZ (protein, UniProt Q7Z3K3 1-1410)
chain: MADTDLFMECEEEELEPWQKISDVIEDSVVEDYNSVDKTTTVSVSQQPVSAPVPIAAHASVAGHLSTSTTVSSSGAQNSDSTKKTLVTLIANNNAGNPLVQQGGQPLILTQNPAPGLGTMVTQPVLRPVQVMQNANHVTSSPVASQPIFITTQGFPVRNVRPVQNAMNQVGIVLNVQQGQTVRPITLVPAPGTQFVKPTVGVPQVFSQMTPVRPGSTMPVRPTTNTFTTVIPATLTIRSTVPQSQSQQTKSTPSTSTTPTATQPTSLGQLAVQSPGQSNQTTNPKLAPSFPSPPAVSIASFVTVKRPGVTGENSNEVAKLVNTLNTIPSLGQSPGPVVVSNNSSAHGSQRTSGPESSMKVTSSIPVFDLQDGGRKICPRCNAQFRVTEALRGHMCYCCPEMVEYQKKGKSLDSEPSVPSAAKPPSPEKTAPVASTPSSTPIPALSPPTKVPEPNENVGDAVQTKLIMLVDDFYYGRDGGKVAQLTNFPKVATSFRCPHCTKRLKNNIRFMNHMKHHVELDQQNGEVDGHTICQHCYRQFSTPFQLQCHLENVHSPYESTTKCKICEWAFESEPLFLQHMKDTHKPGEMPYVCQVCQYRSSLYSEVDVHFRMIHEDTRHLLCPYCLKVFKNGNAFQQHYMRHQKRNVYHCNKCRLQFLFAKDKIEHKLQHHKTFRKPKQLEGLKPGTKVTIRASRGQPRTVPVSSNDTPPSALQEAAPLTSSMDPLPVFLYPPVQRSIQKRAVRKMSVMGRQTCLECSFEIPDFPNHFPTYVHCSLCRYSTCCSRAYANHMINNHVPRKSPKYLALFKNSVSGIKLACTSCTFVTSVGDAMAKHLVFNPSHRSSSILPRGLTWIAHSRHGQTRDRVHDRNVKNMYPPPSFPTNKAATVKSAGATPAEPEELLTPLAPALPSPASTATPPPTPTHPQALALPPLATEGAECLNVDDQDEGSPVTQEPELASGGGGSGGVGKKEQLSVKKLRVVLFALCCNTEQAAEHFRNPQRRIRRWLRRFQASQGENLEGKYLSFEAEEKLAEWVLTQREQQLPVNEETLFQKATKIGRSLEGGFKISYEWAVRFMLRHHLTPHARRAVAHTLPKDVAENAGLFIDFVQRQIHNQDLPLSMIVAIDEISLFLDTEVLSSDDRKENALQTVGTGEPWCDVVLAILADGTVLPTLVFYRGQMDQPANMPDSILLEAKESGYSDDEIMELWSTRVWQKHTACQRSKGMLVMDCHRTHLSEEVLAMLSASSTLPAVVPAGCSSKIQPLDVCIKRTVKNFLHKKWKEQAREMADTACDSDVLLQLVLVWLGEVLGVIGDCPELVQRSFLVASVLPGPDGNINSPTRNADMQEELIASLEEQLKLSGEHSESSTPRPRSSPEETIEPESLHQLFEGESETESFYGFEEADLDLMEI
binding [3]: binds | binding [1]: binds

B3: ZNF512B (protein, UniProt Q96KM6 1-892)
chain: MTDPFCVGGRRLPGSSKSGPGKDGSRKEVRLPMLHDPPKMGMPVVRGGQTVPGQAPLCFDPGSPASDKTEGKKKGRPKAENQALRDIPLSLMNDWKDEFKAHSRVKCPNSGCWLEFPSIYGLKYHYQRCQGGAISDRLAFPCPFCEAAFTSKTQLEKHRIWNHMDRPLPASKPGPISRPVTISRPVGVSKPIGVSKPVTIGKPVGVSKPIGISKPVSVGRPMPVTKAIPVTRPVPVTKPVTVSRPMPVTKAMPVTKPITVTKSVPVTKPVPVTKPITVTKLVTVTKPVPVTKPVTVSRPIVVSKPVTVSRPIAISRHTPPCKMVLLTRSENKAPRATGRNSGKKRAADSLDTCPIPPKQARPENGEYGPSSMGQSSAFQLSADTSSGSLSPGSRPSGGMEALKAAGPASPPEEDPERTKHRRKQKTPKKFTGEQPSISGTFGLKGLVKAEDKARVHRSKKQEGPGPEDARKKVPAAPITVSKEAPAPVAHPAPGGPEEQWQRAIHERGEAVCPTCNVVTRKTLVGLKKHMEVCQKLQDALKCQHCRKQFKSKAGLNYHTMAEHSAKPSDAEASEGGEQEERERLRKVLKQMGRLRCPQEGCGAAFSSLMGYQYHQRRCGKPPCEVDSPSFPCTHCGKTYRSKAGHDYHVRSEHTAPPPEEPTDKSPEAEDPLGVERTPSGRVRRTSAQVAVFHLQEIAEDELARDWTKRRMKDDLVPETARLNYTRPGLPTLNPQLLEAWKNEVKEKGHVNCPNDCCEAIYSSVSGLKAHLASCSKGAHLAGKYRCLLCPKEFSSESGVKYHILKTHAENWFRTSADPPPKHRSQDSLVPKKEKKKNLAGGKKRGRKPKERTPEEPVAKLPPRRDDWPPGCRDKGARGSTGRKVGVSKAPEK
binding [3]: binds | binding [1]: binds
